Laboratory results from PubChem BioAssay AID256 (DTP/NCI, 2004).
The list does not hold the whole screen: it is rich in T/C values a quarter to a half above the control, in often repeated tests (any T/C) and in doses without a T/C. Other doses and runs of a compound stand elsewhere. T/C: endpoint of the treated group in % of that of the vehicle group. Some entries give survivors of the animals treated and no T/C: the source files T/C as zero there, which appears to mark a toxic dose or a test without result, not a measured value. Some doses without a T/C left all or most animals alive at the check, yet need not have been tolerated: the source hardly ever lists a survival T/C far under the control, and the zero likely stands for such cases as well. Counts of survivors are from the toxicity check (mostly the fifth day) where no day follows; animals may have died later. Schedules are NCI's codes, taken here to give the interval after Q, in days (D) or hours (H), and the number of doses after X. Some entries hold several experiments; their values stand side by side, smallest first. For survival time, the PubChem record calls one and a half times the control and up active, and a quarter to a half above the control has no call in these data; cut-offs in other NCI protocols can differ. Some T/C values are followed by the survivors on the day toxicity was checked, most often the fifth; where none is given, no animal had died by that day.

Tested on: CD2F1 mice, L1210 leukemia ip, survival T/C
Assay: NCI In Vivo Anticancer Drug Screen. Data for tumor model L1210 Leukemia (intraperitoneal) in CD2F1 (CDF1) mice
Details: higher T/C = longer survival
Outline: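 Implant tumor; dose compound or vehicle; measure endpoint in both groups; report treated divided by control.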

[1] = T/C endpoint: mean survival time, dose: 400.0 mg/kg/injection, schedule: Q04DX003 (ip), vehicle: saline with Tween-80
[2] = T/C endpoint: mean survival time, dose: 50.0 mg/kg/injection, schedule: Q01DX009 (ip), vehicle: saline with Tween-80
[3] = T/C endpoint: mean survival time, dose: 200.0 mg/kg/injection, schedule: Q04DX003 (ip), vehicle: saline with Tween-80
[4] = T/C endpoint: mean survival time, dose: 400.0 mg/kg/injection, schedule: Q04DX002 (ip), vehicle: saline with Tween-80
[5] = T/C endpoint: mean survival time, dose: 50.0 mg/kg/injection, schedule: Q04DX003 (ip), vehicle: saline with Tween-80
[6] = T/C endpoint: mean survival time, dose: 100.0 mg/kg/injection, schedule: Q04DX003 (ip), vehicle: saline with Tween-80
[7] = T/C endpoint: mean survival time, dose: 150.0 mg/kg/injection, schedule: Q01DX001 (ip), vehicle: saline
[8] = T/C endpoint: mean survival time, dose: 300.0 mg/kg/injection, schedule: Q01DX001 (ip), vehicle: saline
[9] = T/C endpoint: mean survival time, dose: 50.0 mg/kg/injection, schedule: Q01DX009 (ip), vehicle: water
[10] = T/C endpoint: mean survival time, dose: 100.0 mg/kg/injection, schedule: Q01DX009 (ip), vehicle: water

Structure (SMILES): CC([NH-])C(C)[NH-].[Cl][Pt+2][Cl] (stereo not drawn)
- T/C (T/C endpoint: mean survival time, dose: 3.12 mg/kg/injection, schedule: Q04DX002 (ip), vehicle: Klucel (hydroxypropylcellulose) (HPC)): 126 % of control
- T/C (T/C endpoint: mean survival time, dose: 6.25 mg/kg/injection, schedule: Q04DX002 (ip), vehicle: Klucel (hydroxypropylcellulose) (HPC)): 129 and 135 % of control
- T/C (T/C endpoint: mean survival time, dose: 12.5 mg/kg/injection, schedule: Q04DX002 (ip), vehicle: Klucel (hydroxypropylcellulose) (HPC)): 148 % of control

Structure (SMILES): O[O][Sn][c]1ccccc1
- survivor count [1]: 3 of 6

Structure (SMILES): C=C1C(=O)C23[C@H](O)C1CC[C@H]2[C@]12COC3(O)[C@@H](O)[C@@H]1C(C)(C)CC[C@@H]2O
- survivor count (T/C endpoint: mean survival time, dose: 9.0 mg/kg/injection, schedule: Q01DX009 (ip), vehicle: Klucel (hydroxypropylcellulose) (HPC)): 2 of 6
- survivor count (T/C endpoint: mean survival time, dose: 36.0 mg/kg/injection, schedule: Q01DX009 (ip), vehicle: Klucel (hydroxypropylcellulose) (HPC)): 2 of 6
- survivor count [2]: 1 of 6 and 2 of 6

Structure (SMILES): CC(C)(C)OC(=O)CCC(NC(=O)OCc1ccccc1)C(=O)O (stereo not drawn)
- survivor count [3]: 3 of 6
- survivor count (T/C endpoint: mean survival time, dose: 400.0 mg/kg/injection, schedule: Q01DX001 (ip), vehicle: saline sonified): 1 of 6

Structure (SMILES): N#CC1C2CCC(O2)C1C(=O)OCc1ccccc1 (stereo not drawn)
- survivor count (T/C endpoint: mean survival time, dose: 100.0 mg/kg/injection, schedule: Q04DX002 (ip), vehicle: saline with Tween-80): 3 of 3
- survivor count [4]: 2 of 3

Structure (SMILES): COc1nc(C(Cl)(Cl)Cl)c(Cl)c(OC)c1Cl
- T/C (T/C endpoint: median survival time, dose: 90.0 mg/kg/injection, schedule: Q01DX005 (ip), vehicle: Klucel (hydroxypropylcellulose) (HPC)): 126 % of control
- T/C (T/C endpoint: median survival time, dose: 100.0 mg/kg/injection, schedule: Q01DX009 (ip), vehicle: Klucel (hydroxypropylcellulose) (HPC)): 130 and 146 % of control
- T/C (T/C endpoint: median survival time, dose: 120.0 mg/kg/injection, schedule: Q01DX005 (ip), vehicle: Klucel (hydroxypropylcellulose) (HPC)): 141 % of control
- survivor count (T/C endpoint: median survival time, dose: 400.0 mg/kg/injection, schedule: Q01DX009 (ip), vehicle: Klucel (hydroxypropylcellulose) (HPC)): 6 of 6

Structure (SMILES): [Cl][Sb]([c]1ccccc1)([c]1ccccc1)([c]1ccccc1)[c]1ccccc1
- survivor count (T/C endpoint: mean survival time, dose: 18.8 mg/kg/injection, schedule: Q04DX003 (ip), vehicle: saline): 2 of 6

Structure (SMILES): C/C=C/C[n+]1cccc2ccccc21
- survivor count (T/C endpoint: mean survival time, dose: 100.0 mg/kg/injection, schedule: Q04DX003 (ip), vehicle: saline sonified): 0 of 6
- survivor count (T/C endpoint: mean survival time, dose: 200.0 mg/kg/injection, schedule: Q04DX003 (ip), vehicle: saline sonified): 0 of 6
- survivor count (T/C endpoint: mean survival time, dose: 400.0 mg/kg/injection, schedule: Q04DX003 (ip), vehicle: saline sonified): 0 of 6

Structure (SMILES): C=C(N=[N+]=[N-])c1ccccc1
- survivor count (T/C endpoint: mean survival time, dose: 200.0 mg/kg/injection, schedule: Q01DX009 (ip), vehicle: other): 4 of 6

Structure (SMILES): CCOC(=O)C(C#N)c1ccccc1 (stereo not drawn)
- survivor count [4]: 0 of 3

Structure (SMILES): CCOC(=O)c1cnc(NN)nc1Nc1cc(Cl)cc(Cl)c1
- survivor count [5]: 0 of 6

Structure (SMILES): CN(C)C(=O)c1cccc(COc2ccc(N)cc2Cl)c1
- survivor count [6]: 6 of 6

Structure (SMILES): Cc1c(C)c(O)c2c(c1C)C(C)C(=O)OC2=O (stereo not drawn)
- survivor count (T/C endpoint: mean survival time, dose: 75.0 mg/kg/injection, schedule: Q01DX001 (ip), vehicle: saline): 3 of 6
- survivor count [7]: 0 of 6
- survivor count [8]: 0 of 6

Structure (SMILES): O=C(Nn1c(=O)c(=O)oc2ccccc21)C(F)(F)F
- survivor count [1]: 3 of 6

Structure (SMILES): Cc1cc(C)cc(C(C)C)c1
- survivor count (T/C endpoint: mean survival time, dose: 400.0 mg/kg/injection, schedule: Q01DX009 (ip), vehicle: saline with Tween-80): 4 of 6

Structure (SMILES): CCCCn1cnc2c(=S)nc(N)[nH]c21
- T/C (T/C endpoint: mean survival time, dose: 25.0 mg/kg/injection, schedule: Q04DX003 (ip), vehicle: saline with Tween-80): 145 % of control
- T/C (T/C endpoint: mean survival time, dose: 33.0 mg/kg/injection, schedule: Q04DX003 (ip), vehicle: saline with Tween-80): 143 % of control
- T/C [5]: 145 % of control
- T/C (T/C endpoint: mean survival time, dose: 75.0 mg/kg/injection, schedule: Q04DX003 (ip), vehicle: saline with Tween-80): 130 % of control
- T/C (T/C endpoint: mean survival time, dose: 100.0 mg/kg/injection, schedule: Q01DX009 (ip), vehicle: saline with Tween-80): 138 % of control
- T/C [6]: 140 % of control

Structure (SMILES): CN1CCCN(C)C1c1ccccc1O
- survivor count [6]: 4 of 6
- survivor count [3]: 0 of 6
- survivor count [1]: 0 of 6

Structure (SMILES): O=[N+]([O-])c1cccc(S(=O)(=O)O)c1.[Fe]
- survivor count (T/C endpoint: mean survival time, dose: 200.0 mg/kg/injection, schedule: Q01DX009 (ip), vehicle: saline): 3 of 6

Structure (SMILES): Cc1ncc(CNC(=O)N(CCCl)N=O)c(N)n1
- T/C (T/C endpoint: mean survival time, dose: 25.0 mg/kg/injection, schedule: Q01DX009 (ip), vehicle: saline): 133 % of control
- T/C [2]: 133 % of control
- survivor count (T/C endpoint: mean survival time, dose: 50.0 mg/kg/injection, schedule: Q01DX009 (ip), vehicle: saline): 6 of 6
- survivor count (T/C endpoint: mean survival time, dose: 70.0 mg/kg/injection, schedule: Q04DX002 (ip), vehicle: saline): 3 of 3

Structure (SMILES): NC(Cc1c[nH]c2ccc(N(CCCl)CCCl)cc12)C(=O)O (stereo not drawn)
- T/C (T/C endpoint: mean survival time, dose: 0.25 mg/kg/injection, schedule: Q01DX010 (ip), vehicle: saline): 142 % of control

Structure (SMILES): COc1cc2c(c(OC)c1OC)CCNC2
- survivor count (T/C endpoint: mean survival time, dose: 100.0 mg/kg/injection, schedule: Q01DX001 (ip), vehicle: saline): 0 of 6
- survivor count (T/C endpoint: mean survival time, dose: 200.0 mg/kg/injection, schedule: Q01DX001 (ip), vehicle: saline): 0 of 6
- survivor count (T/C endpoint: mean survival time, dose: 400.0 mg/kg/injection, schedule: Q01DX001 (ip), vehicle: saline): 0 of 6

Structure (SMILES): O=C(Nc1ccc(NC2=NCCN2)cc1)c1ccc(C(=O)Nc2ccc(NC3=NCCN3)cc2)cc1
- T/C (T/C endpoint: mean survival time, dose: 6.0 mg/kg/injection, schedule: Q01DX008 (iv), vehicle: water): 130 % of control
- survivor count (T/C endpoint: mean survival time, dose: 9.0 mg/kg/injection, schedule: Q01DX008 (iv), vehicle: water): 0 of 7

Structure (SMILES): CCOC(=O)Nc1cc(NCc2ccccc2)c([N+](=O)[O-])c(N)n1
- survivor count (T/C endpoint: mean survival time, dose: 100.0 mg/kg/injection, schedule: Q01DX001 (ip), vehicle: Klucel (hydroxypropylcellulose) (HPC)): 5 of 6
- survivor count (T/C endpoint: mean survival time, dose: 200.0 mg/kg/injection, schedule: Q01DX001 (ip), vehicle: Klucel (hydroxypropylcellulose) (HPC)): 6 of 6
- survivor count (T/C endpoint: mean survival time, dose: 400.0 mg/kg/injection, schedule: Q01DX001 (ip), vehicle: Klucel (hydroxypropylcellulose) (HPC)): 6 of 6

Structure (SMILES): CSc1sc2cc([N+](=O)[O-])ccc2[n+]1C
- survivor count [7]: 1 of 6
- survivor count [8]: 0 of 6

Structure (SMILES): CCC1(C)C(C#N)C(=O)NC(=O)C1C#N (stereo not drawn)
- survivor count (T/C endpoint: mean survival time, dose: 200.0 mg/kg/injection, schedule: Q01DX009 (ip), vehicle: saline sonified): 2 of 6
- survivor count [1]: 2 of 6

Structure (SMILES): O=S(=O)(c1ccc(Cl)cc1)N(Cl)Cl
- survivor count (T/C endpoint: mean survival time, dose: 400.0 mg/kg/injection, schedule: Q01DX001 (ip), vehicle: saline with Tween-80): 0 of 6

Structure (SMILES): C[n+]1c2ccccc2c(Nc2ccc(NS(=O)(=O)CCCCN=C(N)N)cc2)c2ccc(N)cc21
- T/C (T/C endpoint: mean survival time, dose: 12.5 mg/kg/injection, schedule: Q01DX009 (ip), vehicle: water): 139 % of control [7 of 10 alive]
- survivor count (T/C endpoint: mean survival time, dose: 25.0 mg/kg/injection, schedule: Q01DX009 (ip), vehicle: water): 0 of 10
- survivor count [9]: 0 of 10
- survivor count [10]: 0 of 10

Structure (SMILES): ClC1CC[N-]CC1.ClC1CC[N-]CC1.[Cl][Pt+2]([Cl])([Cl])[Cl]
- survivor count [9]: 1 of 6
- survivor count [10]: 1 of 6
- survivor count (T/C endpoint: mean survival time, dose: 200.0 mg/kg/injection, schedule: Q01DX009 (ip), vehicle: water): 0 of 6
